Reference: paper PMC10468069
Results are given in words; binding and its absence hold for the method and conditions named. In cells and extracts the contact can be indirect. These calls come from enrichment with a bait or labelling near it, and not all partners need be listed.

Amino acid sequences for entries named in this document (tags omitted).
UniProt P53894: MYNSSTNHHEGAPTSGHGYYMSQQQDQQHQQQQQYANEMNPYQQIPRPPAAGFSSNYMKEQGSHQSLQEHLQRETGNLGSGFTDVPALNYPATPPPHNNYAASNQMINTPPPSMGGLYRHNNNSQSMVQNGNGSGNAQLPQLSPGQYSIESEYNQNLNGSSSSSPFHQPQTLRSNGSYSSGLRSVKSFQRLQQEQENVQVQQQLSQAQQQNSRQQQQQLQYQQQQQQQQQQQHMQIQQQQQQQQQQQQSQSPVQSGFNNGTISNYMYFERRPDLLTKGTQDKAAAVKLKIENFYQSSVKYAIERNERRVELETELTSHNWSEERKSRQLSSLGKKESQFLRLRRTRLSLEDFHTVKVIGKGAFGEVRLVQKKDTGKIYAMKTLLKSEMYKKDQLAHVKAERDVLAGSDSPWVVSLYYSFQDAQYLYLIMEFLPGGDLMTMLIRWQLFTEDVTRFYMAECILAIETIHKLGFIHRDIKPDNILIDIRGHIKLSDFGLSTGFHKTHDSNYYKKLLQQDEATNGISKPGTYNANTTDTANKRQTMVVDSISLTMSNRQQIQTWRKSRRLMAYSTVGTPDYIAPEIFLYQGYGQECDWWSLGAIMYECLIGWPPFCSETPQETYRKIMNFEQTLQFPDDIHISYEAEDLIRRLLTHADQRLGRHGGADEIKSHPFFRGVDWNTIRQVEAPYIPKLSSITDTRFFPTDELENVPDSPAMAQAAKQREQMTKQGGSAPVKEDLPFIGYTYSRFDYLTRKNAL

B1: Kin1 (enzyme, UniProt P13185 1-1064)
chain: MDDYHVNTAFSMGRGNQQDDGNSESNSMHTQPSTMAPATLRMMGKSPQQQQQQNTPLMPPADIKYANNGNSHQAEQKERQVELEGKSRENAPKPNTTSQSRVSSSQGMPKQFHRKSLGDWEFVETVGAGSMGKVKLAKHRYTNEVCAVKIVNRATKAFLHKEQMLPPPKNEQDVLERQKKLEKEISRDKRTIREASLGQILYHPHICRLFEMCTLSNHFYMLFEYVSGGQLLDYIIQHGSIREHQARKFARGIASALIYLHANNIVHRDLKIENIMISDSSEIKIIDFGLSNIYDSRKQLHTFCGSLYFAAPELLKANPYTGPEVDVWSFGVVLFVLVCGKVPFDDENSSVLHEKIKQGKVEYPQHLSIEVISLLSKMLVVDPKRRATLKQVVEHHWMVRGFNGPPPSYLPKRVPLTIEMLDINVLKEMYRLEFIDDVEETRSVLVSIITDPTYVLLSRQYWTLAAKMNAESSDNGNAPNITESFEDPTRAYHPMISIYYLTSEMLDRKHAKIRNQQQRQSHENIEKLSEIPESVKQRDVEVNTTAMKSEPEATLATKDTSVPFTPKNSDGTEPPLHVLIPPRLAMPEQAHTSPTSRKSSDNQRREMEYALSPTPQGNDYQQFRVPSTTGDPSEKAKFGNIFRKLSQRRKKTIEQTSVNSNNSINKPVQKTHSRAVSDFVPGFAKPSYDSNYTMNEPVKTNDSRGGNKGDFPALPADAENMVEKQREKQIEEDIMKLHDINKQNNEVAKGSGREAYAAQKFEGSDDDENHPLPPLNVAKGRKLHPSARAKSVGHARRESLKYMRPPMPSSAYPQQELIDTGFLESSDDNKSDSLGNVTSQTNDSVSVHSVNAHINSPSVEKELTDEEILQEASRAPAGSMPSIDFPRSLFLKGFFSVQTTSSKPLPIVRYKIMFVLRKMNIEFKEVKGGFVCMQRFSSNNVAAKREGTPRSIMPLSHHESIRRQGSNKYSPSSPLTTNSIHQRKTSITETYGDDKHSGTSLENIHQQGDGSEGMTTTEKEPIKFEIHIVKVRIVGLAGVHFKKISGNTWLYKELASSILKELKL
B2: Kin2 (enzyme, UniProt P13186 1-1147)
chain: MPNPNTADYLVNPNFRTSKGGSLSPTPEAFNDTRVAAPATLRMMGKQSGPRNDQQQAPLMPPADIKQGKEQAAQRQNDASRPNGAVELRQFHRRSLGDWEFLETVGAGSMGKVKLVKHRQTKEICVIKIVNRASKAYLHKQHSLPSPKNESEILERQKRLEKEIARDKRTVREASLGQILYHPHICRLFEMCTMSNHFYMLFEYVSGGQLLDYIIQHGSLKEHHARKFARGIASALQYLHANNIVHRDLKIENIMISSSGEIKIIDFGLSNIFDYRKQLHTFCGSLYFAAPELLKAQPYTGPEVDIWSFGIVLYVLVCGKVPFDDENSSILHEKIKKGKVDYPSHLSIEVISLLTRMIVVDPLRRATLKNVVEHPWMNRGYDFKAPSYVPNRVPLTPEMIDSQVLKEMYRLEFIDDIEDTRRSLIRLVTEKEYIQLSQEYWDKLSNAKGLSSSLNNNYLNSTAQQTLIQNHITSNPSQSGYNEPDSNFEDPTLAYHPLLSIYHLVSEMVARKLAKLQRRQALALQAQAQQRQQQQQVALGTKVALNNNSPDIMTKMRSPQKEVVPNPGIFQVPAIGTSGTSNNTNTSNKPPLHVMVPPKLTIPEQAHTSPTSRKSSDIHTELNGVLKSTPVPVSGEYQQRSASPVVGEHQEKNTIGGIFRRISQSGQSQHPTRQQEPLPEREPPTYMSKSNEISIKVPKSHSRTISDYIPSARRYPSYVPNSVDVKQKPAKNTTIAPPIRSVSQKQNSDLPALPQNAELIVQKQRQKLLQENLDKLQINDNDNNNVNAVVDGINNDNSDHYLSVPKGRKLHPSARAKSVGHARRESLKFTRPPIPAALPPSDMTNDNGFLGEANKERYNPVSSNFSTVPEDSTTYSNDTNNRLTSVYSQELTEKQILEEASKAPPGSMPSIDYPKSMFLKGFFSVQTTSSKPLPIVRHNIISVLTRMNIDFKEVKGGFICVQQRPSIETAAVPVITTTGVGLDSGKAMDLQNSLDSQLSSSYHSTASSASRNSSIKRQGSYKRGQNNIPLTPLATNTHQRNSSIPMSPNYGNQSNGTSGELSSMSLDYVQQQDDILTTSRAQNINNVNGQTEQTNTSGIKERPPIKFEIHIVKVRIVGLAGVHFKKVSGNTWLYKELASYILKELNL
B3: Yol036w (protein, UniProt Q08206 1-761)
chain: MEHQDSSPPRFRNSGSNRVTVYNGTTLPTMPKSATPTSSSTTVTTHLQNIKEEETNDDELTQVDRSSPRVLGRISSTSSSSSNIDLRDNLDMLHEIEKSNTNISLSAPNLHEELGVLSDKGNSKEELALLPPLPHTGEMEITPQFDINEAIFERDDISHSSRLEPDDVLTKLANSTRDATGEDQGFVVMTHGHDASTNDDSQLSATILDNQTSFDLSKALEMTSHSNISNIINSSGSEGRRSRTPVSNSTLKPNLSSPESAEREANTTSSSSTSDHGATMQYDPKKIITPIPVLPSSVREQQQNNAPLRERSRSNSSALASTLRDTIISGLPQNINSVERKLSRKSNRSRKNTVTFEDRLQKLPPLSTQISNQYAKVAPAENNIALHFHNLPTPVSNTQTPVTFQSESGLTGGEKKMPFLRRASSALLRKTSAKNCSNLTRTNTPTLSTSSTFESDLNARQPMLIRRSSTIDNKLPRRQLSCSKLYSRLNSDSKFANSSRASEEVLVSTPNDTEHVYRKTSLGSKIKRGFTRILSDSNNSKEILTLSPKSMVTTGPTELSFSSLSTVGGHPTTPVSKENDRVSIDGVSTFNRASTSLPESSTDDISPLREEGKINVPKRTSSRKILSKNSSKKNVLPEQQTKPSEIYLDKEALQSFVPVLSVTEGTHRINRSSLQTQSTIGLCITNLRNKEGMKLNAKEYVEILAQQQRKEDERYAVLERKFASCRWCSDKDLQYLKKKRISMNKIWSDYVRFYRGKLNNP
B4: Lst8 (protein, UniProt P41318 1-303)
chain: MSVILVSAGYDHTIRFWEALTGVCSRTIQHSDSQVNRLEITNDKKLLATAGHQNVRLYDIRTTNPNPVASFEGHRGNVTSVSFQQDNRWMVTSSEDGTIKVWDVRSPSIPRNYKHNAPVNEVVIHPNQGELISCDRDGNIRIWDLGENQCTHQLTPEDDTSLQSLSMASDGSMLAAANTKGNCYVWEMPNHTDASHLKPVTKFRAHSTYITRILLSSDVKHLATCSADHTARVWSIDDDFKLETTLDGHQRWVWDCAFSADSAYLVTASSDHYVRLWDLSTREIVRQYGGHHKGAVCVALNDV
B5: Mob2 (protein, UniProt P43563 1-287)
chain: MSFFNFKAFGRNSKKNKNQPLNVAQPPAMNTIYSSPHSSNSRLSLRNKHHSPKRHSQTSFPAQKSTPQSQQLTSTTPQSQQQEASERSESQQIMFLSEPFVRTALVKGSFKTIVQLPKYVDLGEWIALNVFEFFTNLNQFYGVVAEYVTPDAYPTMNAGPHTDYLWLDANNRQVSLPASQYIDLALTWINNKVNDKNLFPTKNGLPFPQQFSRDVQRIMVQMFRIFAHIYHHHFDKIVHLSLEAHWNSFFSHFISFAKEFKIIDRKEMAPLLPLIESFEKQGKIIYN
B6: Sog2 (protein, UniProt Q08817 1-791)
chain: MVATSSKRTLDPKEEHLPADKTSTNSSNTIISELATQEKSSSSGTTLKLIALNIKSISDEDVGYIQNVERLSLRKNHLTSLPASFKRLSRLQYLDLHNNNFKEIPYILTQCPQLEILDLSSNEIEALPDEISSFWQDNIRVLSLKDNNVTSIRNLKSITKLNKLSILDLEDNKIPKEELDQVQSYTPFHTGIPKEEYWAIAISRYLKDHPNLPTPEPKISRAAKRMGFINTNLSNGAMNENNIISLAPSANTTISASTAMVSSNQTSATSFSGTVNAESEQSGAVNGTELYNHTKYNDYFKRLSILPEESMSNGHQKISHAELVVSCRKLLFSFTECQQAIRKIASFCKEKAVAVNVVSLLYSVRSHTDNLVEVLQQTENEDESHDQALIKLCLTIITNFKQIITLLRKNFEIFFKEDDLCFIRMFYMTLMCAYMEMYNAWSFIKEDDQVSGSASKAPKKHSFSRHETSSSSITSGGGPAASTTSTHCSGNIKLLPKTRSTRTPSASALLSNSNILTGDTTAVPLLSPNLNGAHTHGPILGHQNAISNGSSQTNMNEVKTTSDTIPRQQLLQHNKSISDSKKESQAHEPKQHPVMTSSIINASNSNNVSNVNITPPPMNGGGAANSSANVVETNIDIQLYQTLSTVVKMVSVVYNQLTSEISKIAIASTMGKQILTDSLAPKIRDLTETCRQAMDLSKQLNERLNVLIPNDSNSEKYLTSLEKLKTWEIMNSFLKVIISILANTKIVMSDVPNLNELRPNLANLAKITKDVTVILDLSSYKAVSVSANSPE
B7: Kic1 (enzyme, UniProt P38692 1-1080)
chain: MTTKPQNSKQGLAEGEMDVSSLFKRTEVIGRGKFGVVYKGYNVKTGRVYAIKVLNLDSDSDEVEDVQREIQFLASLKQISNITRYYGSYLKDTSLWIIMEHCAGGSLRSLLRPGKIDEKYIGVIMRELLVALKCIHKDNVIHRDIKAANVLITNEGNVKLCDFGVAAQVNQTSLRRQTMAGTPYWMAPEVIMEGVYYDTKVDIWSLGITTYEIATGNPPYCDVEALRAMQLIIKSKPPRLEDRSYSTSLKEFIALCLDEDPKERLSADDLLKSKFIRAHKATPTSILKELISRYLLFRDKNKNKYKIEGSIPENEPSKPSEAPKPSQNGGGDEAQKSIASNDNEIKRVNEGDVEMKWDFDSLSSSDYIIENNINLDALAEDNNEWATAQHDLFNYAYPDEDSYYFDPTSHNTRPFVYQGTTIGKGYPGTIAQNSTLNAPVTNNYTNSKYPSKMVAGTTNTSGTHTAGPMTSSKRLESKAPKQLLELFEDNEIITAENDVNTEAPKISKSISSLNAGNSSRDDFIPSISNEVNGNINNNKMRPHLPPLSSGNNYYSQSTPALPLLQTKFNKTSKGPPTSGLTTAPTSIEIEIPEELPNSALPTPASADPVLIPSTKARSSTVTAGTPSSSSSIQYKSPSNVPRRLTVSNNRPEHCPSTITNQKLGSAVASNSGISSTPNNSNNYNNNTDSENSRGSSGSNTANSTQMGITNPGNVTKLSTHKASSPSRPLFGVGTSPNRKPAGSPTQNIGHNSTHTNLAPPPTMKPMANSKDNKDILLQPLNSIPSSSTLNTISGNSSNNLTSSNYFSNEKEGSRVNGDFKRNNPNLKLQMPLPTPVVRNKLLDPNTATSQNNNGMPGSAGISTNENINQFGFNTSSASNIPVSMTPISEKHIDFGGKIKRSQSISNRKNSSASEHPLNILGSSVSGNVSGIGNNNVGSNNNSGPNNSVPLSANTGNTTIKANSTTIATSSSAAASTTAPISQQTIPSGTQFNHILSSAATAANSVNSLGFGMCPPPQSLQMEMFLDLESFLPGKQRRVDRKPQVLKELENLLQMFEEGLPCIEHALKEQLISTPIKDNEH
B8: Lre1 (protein, UniProt P25579 1-583)
chain: MPNTHTQHVQISEPNPVNTLSTPSKRGHRHRRSLAISGDFDFLKQPAAIVNLPPPQAAENCPSTAPTAVSSTLSPIRYNRFPCKTNEDAGTLDLPEPRFYPLSPKNNLQTPSPRFFISEEPSFSSPVKGVPDAIINLDDALKTRPRSFKSHRRSESAPPDLEVMVDKGNCAAGSNSMIKEEEDSLIEPESKNEYYEQKLPTALLSPLRPSLCVSEQAIDVDDSALNGSPTHHNHGMQNANARNSNTFNSLKIKGQKQRYYHYTKQLPLTVGCDSQSPKEQRSAASMTINQAMTPSSLAYTPSKLASTPATPVSFYDSNADINLESDNFPLKDNPRYAKDGYPKKCGNSQLNRVLDSDKRQDFSGESRRRRSGSPISHMQHRNLIDNMKGRRNSNTINSIFNYKSQHYEMPYDDMMKNENINAQSMPFSVNGVNNENSIGGVITRADDAPLQHSVVKSCTPDGKEEMNRLKSNDSNEYSKSEGQIRTNSQLSKDILMGEPGDMVDLSSFVNAQRKASNETGDLVFSLSQDDDALKTFHASNSAATSNESWCISDDALGKQAQDSEVRRKRKSKLGLFRHIFSRK

molecular target: Cbk1-GFP (S. cerevisiae) (UniProt P53894); assay: affinity purification with mass spectrometry; Cbk1-GFP immunoprecipitated on GFP-Trap Magnetic beads from extracts of cdc15-2 (with or without rapamycin) and TOR1-1 cdc15-2 (with rapamycin) cells arrested in late anaphase at 37 °C; three biological replicates against untagged control cells; spectral counts, SAINT

binding, binds:
B1
B2
B3
B4
B5
B6
B7
B8
